Experimental data reported in patent US20200025759A1.

Key:
Assay in all cases: ELISA, virus solution immobilized on plate, anti-His-HRP detection
[1] = molecular target: intranuclear protein derived from the type-B influenza virus (B/Hokkaido/M2/2014) (type-B influenza virus (B/Hokkaido/M2/2014))
[2] = molecular target: intranuclear protein derived from type-A influenza virus H1N1 (A/Hokkaido/6-5/2014 pdm) (type-A influenza virus H1N1 (A/Hokkaido/6-5/2014 pdm))
[3] = molecular target: intranuclear protein derived from type-A influenza virus H1N1 (A/Hyogo/YS/2011 pdm) (type-A influenza virus H1N1 (A/Hyogo/YS/2011 pdm))

B1: VHH antibody consisting of the amino acid sequence represented by SEQ ID NO: 8 (VHH)
VHH: QVQLVESGGGLVQAGGSLRLSCIASGSIFSPNVMGWYRQAPGKPRELVAAITLGESTNYADSVKGRFTISRSNAENTVYLQMDSLKPEDTAVYYCNAGPILERVGPYWGQGTQVTVSS
[1]
  binding: no binding
[2]
  binding: binds
[3]
  binding: binds

These are yes or no findings as the source states them, for the method shown. For part of these data: A result given as binding can be weak or reduced; the word gives no strength.
